Paper PMC5057473
Results are given in words; binding and its absence hold for the method and conditions named. In cells and extracts the contact can be indirect. A result given as binding can be weak or reduced; the word gives no strength. Where a sequence is shown, tags or fusion partners need not be part of it.

Target: T1, GFP-tagged TSG (mouse) (UniProt Q5RI75)
T1 sequence: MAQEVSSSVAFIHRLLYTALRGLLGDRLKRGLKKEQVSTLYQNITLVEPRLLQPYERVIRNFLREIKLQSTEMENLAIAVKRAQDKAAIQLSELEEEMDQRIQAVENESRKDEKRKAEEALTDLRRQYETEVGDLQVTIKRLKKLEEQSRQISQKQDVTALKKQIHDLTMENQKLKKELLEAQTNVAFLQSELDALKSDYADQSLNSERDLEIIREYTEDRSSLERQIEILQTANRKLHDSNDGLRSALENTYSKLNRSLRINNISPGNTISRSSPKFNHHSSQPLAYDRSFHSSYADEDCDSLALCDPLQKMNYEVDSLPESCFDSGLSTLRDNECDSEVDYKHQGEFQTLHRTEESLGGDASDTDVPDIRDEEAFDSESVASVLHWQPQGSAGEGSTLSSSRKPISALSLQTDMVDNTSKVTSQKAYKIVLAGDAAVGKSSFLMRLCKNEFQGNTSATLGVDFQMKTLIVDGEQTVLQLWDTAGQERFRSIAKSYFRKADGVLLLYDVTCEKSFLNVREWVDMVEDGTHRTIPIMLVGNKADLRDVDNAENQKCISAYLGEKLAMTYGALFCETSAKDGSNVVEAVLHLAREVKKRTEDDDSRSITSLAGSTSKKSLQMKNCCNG
Assay: co-IP; Cos-7 cells transfected with GFP or GFP-TSG; lysate immunoprecipitated with anti-GFP antibody, blotted with anti-actin or anti-GFP

binding: binds
Substance: actin
